Some results were stated once for a whole list of compounds, not compound by compound.
Test system: collagen
Experiment: Collagen-agarose pulldown assay with IL-2 immunoblot
Type: binding
Details: blot quantitation, iBright
Method: To test binding to collagen, a pulldown assay using agarose cross-linked to collagen (Sigma) was performed. IL-2 fusion proteins were incubated with collagen-agarose or control agarose beads for 18-22 hours at 4° C. with gentle rotation in 1% BSA/PBS-0.05% Tween 20. After washing, proteins bound to the beads were eluted by resuspending beads in SDS sample buffer (Life Technologies). Bound proteins were then separated by SDS-PAGE on 4-12% BisTris gradient gel, followed by immunoblotting with goat anti-mouse IL-2 polyclonal antibody (AF-402-NA; R&D systems). Donkey anti-goat HRP-conjugated antibody was used for detection (Jackson Immuno Research, West Grove, PA), and the blot was developed using the SuperSignal West Femto Maximum sensitivity detection reagent (ThermoFisher) following the manufacturer's recommendations.

Molecule	fraction of bound protein
Construct GG: mIL2-SGG-KLWVLPK-MMPcs1-2x(G4S)-mIL2Ra(1-215)-muIgG1Fc; collagen IV (protein, Synthetic: Construct GG, mIL2-SGG-KLWVLPK-MMPcs1-2x(G4S)-mIL2Ra(1-215)-muIgG1Fc; collagen IV) APTSSSTSSSTAEAQQQQQQQQQQQQHLEQLLMDLQELLSRMENYRNLKLPRMLTFKFYLPKQATELKDLQCLEDELGPLRHVLDLTQSKSFQLEDAENFISNIRVTVVKLKGSDNTFECQFDDESATVVDFLRRWIAFCQSIISTSPQSGGKLWVLPKGPLGVRGGGGGSGGGGSELCLYDPPEVPNATFKALSYKNGTILNCECKRGFRRLKELVYMRCLGNSWSSNCQCTSNSHDKSRKQVTAQLEHQKEQQTTTDMQKPTQSMHQENLTGHCREPPPWKHEDSKRIYHFVEGQSVHYECIPGYKALQRGPAISICKMKCGKTGWTQPQLTCVDEREHHRFLASEESQGSRNSSPESETSCPITTTDFPQPTETTAMTETFVLTMEYKGCKPCICTVPEVSSVFIFPPKPKDVLTITLTPKVTCVVVDISKDDPEVQFSWFVDDVEVHTAQTQPREEQFNSTFRSVSELPIMHQDWLNGKEFKCRVNSAAFPAPIEKTISKTKGRPKAPQVYTIPPPKEQMAKDKVSLTCMITDFFPEDITVEWQWNGQPAENYKNTQPIMDTDGSYFVYSKLNVQKSNWEAGNTFTCSVLHEGLHNHHTEKSLSHSPGK	< 1 % of input
Construct II: mIL2-LHERHLNNN-MMPcs1-2x(G4S)-mIL2Ra(1-215)-muIgG1Fc; collagen I (protein, Synthetic: Construct II, mIL2-…-MMPcs1-2x(G4S)-mIL2Ra(1-215)-muIgG1Fc; collagen I) APTSSSTSSSTAEAQQQQQQQQQQQQHLEQLLMDLQELLSRMENYRNLKLPRMLTFKFYLPKQATELKDLQCLEDELGPLRHVLDLTQSKSFQLEDAENFISNIRVTVVKLKGSDNTFECQFDDESATVVDFLRRWIAFCQSIISTSPQSLHERHLNNNGPLGVRGGGGGSGGGGSELCLYDPPEVPNATFKALSYKNGTILNCECKRGFRRLKELVYMRCLGNSWSSNCQCTSNSHDKSRKQVTAQLEHQKEQQTTTDMQKPTQSMHQENLTGHCREPPPWKHEDSKRIYHFVEGQSVHYECIPGYKALQRGPAISICKMKCGKTGWTQPQLTCVDEREHHRFLASEESQGSRNSSPESETSCPITTTDFPQPTETTAMTETFVLTMEYKGCKPCICTVPEVSSVFIFPPKPKDVLTITLTPKVTCVVVDISKDDPEVQFSWFVDDVEVHTAQTQPREEQFNSTFRSVSELPIMHQDWLNGKEFKCRVNSAAFPAPIEKTISKTKGRPKAPQVYTIPPPKEQMAKDKVSLTCMITDFFPEDITVEWQWNGQPAENYKNTQPIMDTDGSYFVYSKLNVQKSNWEAGNTFTCSVLHEGLHNHHTEKSLSHSPGK	< 1 % of input
